Experimental findings from the supplement of paper PMC10849652 are described below.

Sequences of proteins named here, by UniProt entry; tags and fusion partners are left off. A change or cut given only in a name is not applied to a line headed by its entry.
UniProt Q86X95: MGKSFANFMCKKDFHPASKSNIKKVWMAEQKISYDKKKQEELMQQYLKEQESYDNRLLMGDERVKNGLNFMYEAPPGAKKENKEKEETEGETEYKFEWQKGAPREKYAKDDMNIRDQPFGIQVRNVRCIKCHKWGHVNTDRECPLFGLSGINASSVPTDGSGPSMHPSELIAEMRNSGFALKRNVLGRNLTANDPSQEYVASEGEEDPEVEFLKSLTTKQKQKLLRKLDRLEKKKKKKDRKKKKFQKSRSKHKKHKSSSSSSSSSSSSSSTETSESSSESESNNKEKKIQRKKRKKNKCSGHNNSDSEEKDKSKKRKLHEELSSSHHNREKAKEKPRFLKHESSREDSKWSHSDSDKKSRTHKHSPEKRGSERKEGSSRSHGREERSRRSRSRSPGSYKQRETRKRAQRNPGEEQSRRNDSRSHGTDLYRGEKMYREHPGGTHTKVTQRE
UniProt O14647: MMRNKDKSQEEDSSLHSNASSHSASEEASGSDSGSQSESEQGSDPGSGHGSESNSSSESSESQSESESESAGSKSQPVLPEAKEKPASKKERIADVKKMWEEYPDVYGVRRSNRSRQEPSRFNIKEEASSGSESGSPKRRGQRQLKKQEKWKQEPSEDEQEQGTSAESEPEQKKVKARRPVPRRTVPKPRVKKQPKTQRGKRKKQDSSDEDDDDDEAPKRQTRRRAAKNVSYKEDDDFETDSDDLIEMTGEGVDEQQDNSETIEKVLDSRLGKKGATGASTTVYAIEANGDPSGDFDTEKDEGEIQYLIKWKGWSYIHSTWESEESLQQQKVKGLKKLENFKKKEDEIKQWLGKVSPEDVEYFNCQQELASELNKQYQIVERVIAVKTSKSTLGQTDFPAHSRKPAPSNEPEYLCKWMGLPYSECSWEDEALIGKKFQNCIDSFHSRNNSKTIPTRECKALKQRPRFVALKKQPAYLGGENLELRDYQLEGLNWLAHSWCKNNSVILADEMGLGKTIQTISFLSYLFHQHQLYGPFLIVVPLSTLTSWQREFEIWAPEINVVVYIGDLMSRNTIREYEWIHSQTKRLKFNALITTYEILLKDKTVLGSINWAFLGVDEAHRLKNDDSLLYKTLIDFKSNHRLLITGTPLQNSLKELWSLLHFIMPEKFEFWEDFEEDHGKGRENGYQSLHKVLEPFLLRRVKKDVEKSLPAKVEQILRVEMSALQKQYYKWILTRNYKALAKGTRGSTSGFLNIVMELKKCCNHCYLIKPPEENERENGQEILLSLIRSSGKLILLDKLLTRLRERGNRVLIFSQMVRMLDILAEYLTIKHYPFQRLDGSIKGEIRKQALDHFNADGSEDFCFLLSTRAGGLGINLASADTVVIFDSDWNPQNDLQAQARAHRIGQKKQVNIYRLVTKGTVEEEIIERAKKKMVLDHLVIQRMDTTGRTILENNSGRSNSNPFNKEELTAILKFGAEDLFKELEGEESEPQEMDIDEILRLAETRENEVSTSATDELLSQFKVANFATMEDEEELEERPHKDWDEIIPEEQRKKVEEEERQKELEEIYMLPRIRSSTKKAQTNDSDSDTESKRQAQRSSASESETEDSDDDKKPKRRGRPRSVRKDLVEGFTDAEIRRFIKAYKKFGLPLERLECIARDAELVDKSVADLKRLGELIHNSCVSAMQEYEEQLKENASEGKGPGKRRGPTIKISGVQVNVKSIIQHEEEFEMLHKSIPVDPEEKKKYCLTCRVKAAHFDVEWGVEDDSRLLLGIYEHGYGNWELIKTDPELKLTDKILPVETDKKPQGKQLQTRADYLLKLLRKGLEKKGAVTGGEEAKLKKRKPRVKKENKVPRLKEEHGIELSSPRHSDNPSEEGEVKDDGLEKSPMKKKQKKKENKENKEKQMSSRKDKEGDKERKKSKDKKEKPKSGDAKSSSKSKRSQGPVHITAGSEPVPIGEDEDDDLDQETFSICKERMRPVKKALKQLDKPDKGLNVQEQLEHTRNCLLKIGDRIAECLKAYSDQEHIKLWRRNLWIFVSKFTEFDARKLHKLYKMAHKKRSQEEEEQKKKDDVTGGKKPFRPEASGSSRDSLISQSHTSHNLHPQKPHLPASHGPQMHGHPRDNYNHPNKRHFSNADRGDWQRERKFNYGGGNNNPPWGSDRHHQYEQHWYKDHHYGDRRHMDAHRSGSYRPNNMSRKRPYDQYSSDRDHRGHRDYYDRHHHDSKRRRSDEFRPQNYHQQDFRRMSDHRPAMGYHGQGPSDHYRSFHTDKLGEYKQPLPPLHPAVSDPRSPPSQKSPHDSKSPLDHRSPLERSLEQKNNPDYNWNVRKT
UniProt O75122: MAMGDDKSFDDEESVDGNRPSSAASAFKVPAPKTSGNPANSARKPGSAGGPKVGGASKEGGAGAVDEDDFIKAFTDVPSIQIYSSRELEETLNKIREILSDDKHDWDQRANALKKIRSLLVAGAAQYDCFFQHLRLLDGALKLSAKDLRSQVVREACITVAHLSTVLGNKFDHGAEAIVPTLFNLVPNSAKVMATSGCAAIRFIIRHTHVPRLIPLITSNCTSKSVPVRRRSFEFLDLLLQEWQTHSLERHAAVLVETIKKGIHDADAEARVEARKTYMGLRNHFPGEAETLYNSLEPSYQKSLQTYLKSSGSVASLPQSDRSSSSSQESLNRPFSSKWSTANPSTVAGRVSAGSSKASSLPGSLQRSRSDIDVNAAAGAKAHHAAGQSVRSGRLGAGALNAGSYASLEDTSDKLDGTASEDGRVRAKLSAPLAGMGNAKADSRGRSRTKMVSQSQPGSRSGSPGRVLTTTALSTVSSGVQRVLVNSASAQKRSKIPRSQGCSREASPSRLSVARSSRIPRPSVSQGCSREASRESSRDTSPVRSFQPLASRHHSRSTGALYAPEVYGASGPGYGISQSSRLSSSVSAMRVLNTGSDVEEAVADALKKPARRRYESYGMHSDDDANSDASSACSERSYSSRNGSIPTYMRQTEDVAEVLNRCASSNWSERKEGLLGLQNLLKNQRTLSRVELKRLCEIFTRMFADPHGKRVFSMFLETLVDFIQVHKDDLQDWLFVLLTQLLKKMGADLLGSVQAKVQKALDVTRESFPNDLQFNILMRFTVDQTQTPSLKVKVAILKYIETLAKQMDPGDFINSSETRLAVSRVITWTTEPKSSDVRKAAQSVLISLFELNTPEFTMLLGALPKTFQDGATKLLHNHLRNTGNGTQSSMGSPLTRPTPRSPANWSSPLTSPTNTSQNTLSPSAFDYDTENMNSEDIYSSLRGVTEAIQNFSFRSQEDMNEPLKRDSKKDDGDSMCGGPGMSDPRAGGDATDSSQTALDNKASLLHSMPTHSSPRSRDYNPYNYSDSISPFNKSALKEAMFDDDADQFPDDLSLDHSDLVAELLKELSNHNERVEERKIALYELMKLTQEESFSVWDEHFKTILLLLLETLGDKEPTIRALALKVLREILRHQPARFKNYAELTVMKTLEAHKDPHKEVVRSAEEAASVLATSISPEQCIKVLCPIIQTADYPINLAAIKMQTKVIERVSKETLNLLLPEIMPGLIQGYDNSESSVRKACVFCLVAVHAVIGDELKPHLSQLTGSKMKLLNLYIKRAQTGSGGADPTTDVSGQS
UniProt Q9BUK0: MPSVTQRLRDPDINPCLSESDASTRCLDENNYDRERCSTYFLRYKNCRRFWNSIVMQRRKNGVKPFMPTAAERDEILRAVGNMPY
UniProt Q9UBR5: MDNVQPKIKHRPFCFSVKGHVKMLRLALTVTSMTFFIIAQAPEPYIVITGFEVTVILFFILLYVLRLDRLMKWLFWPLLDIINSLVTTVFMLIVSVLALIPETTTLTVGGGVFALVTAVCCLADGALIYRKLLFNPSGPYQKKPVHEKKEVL
UniProt Q8TD26: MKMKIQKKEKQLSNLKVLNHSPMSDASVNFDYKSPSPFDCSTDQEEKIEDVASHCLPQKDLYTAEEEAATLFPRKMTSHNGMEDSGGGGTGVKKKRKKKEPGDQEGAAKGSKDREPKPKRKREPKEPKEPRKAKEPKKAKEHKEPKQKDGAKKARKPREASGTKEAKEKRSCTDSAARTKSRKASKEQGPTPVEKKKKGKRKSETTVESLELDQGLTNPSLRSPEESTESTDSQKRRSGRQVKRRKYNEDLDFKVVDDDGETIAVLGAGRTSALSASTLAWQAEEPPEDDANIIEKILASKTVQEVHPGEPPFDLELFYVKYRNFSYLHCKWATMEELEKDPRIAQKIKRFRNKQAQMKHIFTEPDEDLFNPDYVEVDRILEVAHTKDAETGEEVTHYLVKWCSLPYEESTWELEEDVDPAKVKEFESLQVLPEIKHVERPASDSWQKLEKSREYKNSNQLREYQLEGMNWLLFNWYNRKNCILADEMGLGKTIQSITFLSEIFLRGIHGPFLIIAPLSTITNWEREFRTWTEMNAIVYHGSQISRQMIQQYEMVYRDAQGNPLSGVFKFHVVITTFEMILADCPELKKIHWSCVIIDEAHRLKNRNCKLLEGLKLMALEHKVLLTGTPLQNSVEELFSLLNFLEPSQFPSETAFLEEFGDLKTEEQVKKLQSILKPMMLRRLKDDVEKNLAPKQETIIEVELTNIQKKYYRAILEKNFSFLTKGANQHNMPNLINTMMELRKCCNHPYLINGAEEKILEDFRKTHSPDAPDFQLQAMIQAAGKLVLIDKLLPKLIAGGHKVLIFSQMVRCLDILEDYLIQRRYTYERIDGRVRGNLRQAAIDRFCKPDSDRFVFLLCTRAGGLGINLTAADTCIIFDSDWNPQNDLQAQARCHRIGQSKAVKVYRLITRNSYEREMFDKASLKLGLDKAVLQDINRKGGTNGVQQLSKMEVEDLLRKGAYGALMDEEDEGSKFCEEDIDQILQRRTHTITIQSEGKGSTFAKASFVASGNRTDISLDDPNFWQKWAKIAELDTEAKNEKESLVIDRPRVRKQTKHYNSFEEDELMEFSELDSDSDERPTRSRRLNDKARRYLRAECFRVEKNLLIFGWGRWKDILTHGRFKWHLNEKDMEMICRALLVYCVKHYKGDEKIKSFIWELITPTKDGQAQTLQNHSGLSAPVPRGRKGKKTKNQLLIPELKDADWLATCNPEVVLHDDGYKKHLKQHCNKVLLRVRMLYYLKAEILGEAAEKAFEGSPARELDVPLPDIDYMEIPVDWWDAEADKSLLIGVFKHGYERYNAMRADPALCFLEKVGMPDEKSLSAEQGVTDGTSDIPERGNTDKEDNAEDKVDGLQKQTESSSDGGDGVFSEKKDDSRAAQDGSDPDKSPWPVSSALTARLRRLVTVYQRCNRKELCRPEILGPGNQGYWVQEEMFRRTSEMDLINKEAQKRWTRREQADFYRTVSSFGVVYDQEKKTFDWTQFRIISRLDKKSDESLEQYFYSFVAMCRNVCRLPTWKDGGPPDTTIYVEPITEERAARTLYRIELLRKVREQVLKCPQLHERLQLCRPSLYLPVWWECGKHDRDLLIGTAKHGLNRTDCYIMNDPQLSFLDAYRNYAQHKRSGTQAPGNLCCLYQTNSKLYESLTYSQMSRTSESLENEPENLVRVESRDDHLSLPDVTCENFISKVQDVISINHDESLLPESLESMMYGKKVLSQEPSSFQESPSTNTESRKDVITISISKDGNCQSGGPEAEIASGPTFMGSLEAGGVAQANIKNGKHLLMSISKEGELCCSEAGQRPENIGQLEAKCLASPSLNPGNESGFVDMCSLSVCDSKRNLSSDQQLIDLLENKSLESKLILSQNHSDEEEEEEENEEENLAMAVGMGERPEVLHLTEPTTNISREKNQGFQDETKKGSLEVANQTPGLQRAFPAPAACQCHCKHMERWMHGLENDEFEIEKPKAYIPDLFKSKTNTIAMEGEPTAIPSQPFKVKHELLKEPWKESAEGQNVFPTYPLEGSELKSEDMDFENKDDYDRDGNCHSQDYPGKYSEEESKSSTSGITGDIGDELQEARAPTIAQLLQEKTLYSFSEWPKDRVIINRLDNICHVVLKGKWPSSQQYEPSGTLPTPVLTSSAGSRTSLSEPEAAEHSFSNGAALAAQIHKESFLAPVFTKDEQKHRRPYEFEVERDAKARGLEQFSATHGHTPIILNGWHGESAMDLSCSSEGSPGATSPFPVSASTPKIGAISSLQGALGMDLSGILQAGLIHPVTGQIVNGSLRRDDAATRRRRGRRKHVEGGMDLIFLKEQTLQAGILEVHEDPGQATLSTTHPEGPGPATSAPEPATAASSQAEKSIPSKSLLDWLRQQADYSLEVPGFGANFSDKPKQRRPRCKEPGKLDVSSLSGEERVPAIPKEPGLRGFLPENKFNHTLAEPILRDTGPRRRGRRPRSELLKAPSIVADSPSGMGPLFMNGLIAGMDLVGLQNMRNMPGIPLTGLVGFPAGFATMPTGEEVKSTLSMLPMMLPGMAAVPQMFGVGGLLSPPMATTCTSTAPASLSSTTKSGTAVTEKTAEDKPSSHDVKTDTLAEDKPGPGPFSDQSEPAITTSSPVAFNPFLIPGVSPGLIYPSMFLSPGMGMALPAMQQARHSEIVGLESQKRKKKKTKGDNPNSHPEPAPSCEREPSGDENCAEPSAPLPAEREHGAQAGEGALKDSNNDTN
UniProt P56277: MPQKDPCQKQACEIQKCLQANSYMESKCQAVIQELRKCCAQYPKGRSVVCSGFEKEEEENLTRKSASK

This is one part of the list.

Compound in one assay: CC(C)(C)Cn1c(N)nc2ccc(-c3[nH]c(C(C)(C)C)nc3-c3ccc(F)cc3)nc21 [ralimetinib]
As to the kind of experiment: log2 fold change, soluble protein after heating vs DMSO (PISA); higher = thermal stabilisation; K562 lysate, 10 uM; active = over 0.2 and 3.5 SD of the protein, either way, in both replicates (recomputed). Put shortly:
(§1)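 Dounce homogenisation of K562 pellets in PBS pH 7.4 with 1 mM MgCl2 produced a crude extract, used at 1 mg/mL protein. Exposure to 10 μM compound lasted 30 min, and aliquots were then heated for 3 min across 48°C-58°C, pooled and brought to 0.5% NP-40 at 4°C. The supernatant after 21,000xg for 90 min was quantified by TMTpro 16plex LC-MS/MS with channel sums equalised. Duplicate values are given as log-two fold change in thermal stability relative to solvent controls.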
Take CINP isoform 3 (UniProt Q9BW66): the log2 fold change was inactive: 0.047.
Same read-out and setting: under CHPT1 (UniProt Q8WUD6) stands inactive: -0.057.
Still for that read-out and setting: in the case of CLIP1, A0A3B3ITA2 it was inactive: 0.156.
Still for that read-out and setting: under CIR1 (UniProt Q86X95) stands inactive: -0.236.
Consider CHD2 (UniProt O14647), for which the log2 fold change was inactive: 0.04.
Same read-out and setting: in the case of CHTF18 (UniProt Q8WVB6) it was inactive: 0.013; in that of CHCHD5 (UniProt Q9BSY4), inactive: -0.033; in that of CLASP2 (UniProt O75122), inactive: 0.075.
Take CHD4, A0A2R8Y521: the log2 fold change was inactive: -0.175.
On the same count and under the same terms, in the case of CLCN5 isoform 2 (UniProt P51795) it was inactive: 0.135; in that of CLSTN1 (UniProt O94985), inactive: -0.071.
The same measure, in the same setting: in the case of CMTR2 (UniProt Q8IYT2) it was inactive: -0.037; in that of CHMP4A (UniProt H0YIN6), inactive: -0.253; in that of CLYBL (UniProt Q8N0X4), inactive: 0.031.
Take CHCHD7 isoform 4 (UniProt Q9BUK0): the log2 fold change was inactive: -0.038.
On the same count and under the same terms, under CLSTN3 isoform 2 (UniProt Q9BQT9) stands inactive: 0.036.
As for CKLF (UniProt Q9UBR5), the log2 fold change is inactive: -0.076.
Still for that read-out and setting: in the case of CHD6 (UniProt Q8TD26) it was inactive: 0.094.

Compound in another assay: CC(C)(O)CC(=O)NCCn1ccc2ncnc(Nc3ccc(Oc4cccc(C(F)(F)F)c4)c(Cl)c3)c21
The assay is described as above. In outline:
as §1
CINP isoform 3 (UniProt Q9BW66): the log2 fold change was inactive: -0.051.
For the target CHPT1 (UniProt Q8WUD6), the log2 fold change was inactive: -0.222.
Same read-out and setting: in the case of CLIP1, A0A3B3ITA2 it was inactive: -0.173; in that of CIR1 (UniProt Q86X95), inactive: 0.033.
For CHD2 (UniProt O14647), the log2 fold change is inactive: -0.022.
The same measure, in the same setting: under CHTF18 (UniProt Q8WVB6) stands inactive: 0.085.
As for CHCHD5 (UniProt Q9BSY4), the log2 fold change is inactive: 0.024.
Same read-out and setting: under CLASP2 (UniProt O75122) stands inactive: 0.069.
Still for that read-out and setting: in the case of CHD4, A0A2R8Y521 it was inactive: -0.011; in that of CLCN5 isoform 2 (UniProt P51795), inactive: -0.157; in that of CLSTN1 (UniProt O94985), inactive: 0.166.
On the same count and under the same terms, in the case of CMTR2 (UniProt Q8IYT2) it was inactive: -0.001.
In the case of CHMP4A (UniProt H0YIN6), the log2 fold change was inactive: -0.354.
With CLYBL (UniProt Q8N0X4), the log2 fold change was inactive: -0.022.
Consider CHCHD7 isoform 4 (UniProt Q9BUK0), for which the log2 fold change was inactive: -0.014.
For CLSTN3 isoform 2 (UniProt Q9BQT9), the log2 fold change is inactive: -0.076.
CKLF (UniProt Q9UBR5): the log2 fold change was inactive: -0.033.
On the same count and under the same terms, in the case of CHD6 (UniProt Q8TD26) it was inactive: 0.017.

Compound in the next assay: CC(C)C1=C2N=C(C=C(N2N=C1)NCC3=CC=CC=C3)NCCCCCCN
The assay is described as above. In outline: as §1
Turning to CMC4 (UniProt P56277), the log2 fold change was inactive: 0.013.
Consider CHTF18 (UniProt Q8WVB6), for which the log2 fold change was inactive: -0.042.
Regarding CLEC11A (UniProt Q9Y240), the log2 fold change is inactive: 0.022.
In the case of CHCHD5 (UniProt Q9BSY4), the log2 fold change was inactive: -0.034.
For the target CLCN5 isoform 2 (UniProt P51795), the log2 fold change is inactive: 0.028.
Regarding CITED2 (UniProt Q99967), the log2 fold change was inactive: 0.015.
As for CLSTN3 isoform 2 (UniProt Q9BQT9), the log2 fold change was inactive: 0.039.

Compound in a further assay: CC1=C(C(CC(=O)N1)C2=CC=C(C=C2)C(F)(F)F)C(=O)NC3=C(C=C4C(=C3)C=NN4)F
Described as above. Put shortly: as §1
For the target CINP isoform 3 (UniProt Q9BW66), the log2 fold change is inactive: 0.072.
CMC4 (UniProt P56277): the log2 fold change was inactive: 0.103.
As to CHD2 (UniProt O14647), the log2 fold change was inactive: -0.012.
With CHTF18 (UniProt Q8WVB6), the log2 fold change is inactive: 0.054.
Take CHCHD5 (UniProt Q9BSY4): the log2 fold change was inactive: -0.022.
Take CLASP2 (UniProt O75122): the log2 fold change was inactive: 0.044.
Regarding CHD4, A0A2R8Y521, the log2 fold change was inactive: -0.19.
Same read-out and setting: under CLSTN1 (UniProt O94985) stands inactive: -0.102.
Same read-out and setting: in the case of CMTR2 (UniProt Q8IYT2) it was inactive: -0.037.
Still for that read-out and setting: under CKS2 (UniProt P33552) stands inactive: 0.029; under CLYBL (UniProt Q8N0X4), inactive: 0.105.
In the case of CHCHD7 isoform 4 (UniProt Q9BUK0), the log2 fold change was inactive: 0.116.
For the target CLSTN3 isoform 2 (UniProt Q9BQT9), the log2 fold change was inactive: -0.024.
Still for that read-out and setting: under CHST14 (UniProt Q8NCH0) stands inactive: 0.022; under CHD6 (UniProt Q8TD26), inactive: 0.096.
Still for that read-out and setting: under CLUL1 (UniProt Q15846) stands inactive: 0.054.

Compound in the next assay: CC1=C(C2=C(C=C1)C(=O)C3=CC=CC=C3N2CCCN)C
Described as above. In outline: as §1
With CINP isoform 3 (UniProt Q9BW66), the log2 fold change was inactive: -0.168.
Consider CIR1 (UniProt Q86X95), for which the log2 fold change is inactive: -0.162.
The same measure, in the same setting: under CHD2 (UniProt O14647) stands inactive: -0.094; under CHTF18 (UniProt Q8WVB6), inactive: -0.078; under CKAP4 (UniProt Q07065), inactive: 0.071.
Consider CHCHD5 (UniProt Q9BSY4), for which the log2 fold change was inactive: 0.
Still for that read-out and setting: under CHD4, A0A2R8Y521 stands inactive: 0.191; under CITED2 (UniProt Q99967), inactive: -0.032; under CHMP4A (UniProt H0YIN6), inactive: -0.055.
Consider CLYBL (UniProt Q8N0X4), for which the log2 fold change is inactive: 0.034.
Still for that read-out and setting: in the case of CHCHD7 isoform 4 (UniProt Q9BUK0) it was inactive: 0.002; in that of CLSTN3 isoform 2 (UniProt Q9BQT9), inactive: -0.065.
On the same count and under the same terms, under CKLF (UniProt Q9UBR5) stands inactive: -0.124; under CLK2 (UniProt P49760), inactive: 0.043.
For the target CLINT1 (UniProt Q14677), the log2 fold change is inactive: 0.005.
Regarding CHST14 (UniProt Q8NCH0), the log2 fold change is inactive: -0.156.
Still for that read-out and setting: under CHD6 (UniProt Q8TD26) stands inactive: -0.083; under CHST2 (UniProt Q9Y4C5), inactive: -0.164.
